Experimental data taken from patent publication US20200138854A1, “Method of Detecting and Quantifying Bile Acid from Saliva” (Ironwood Pharmaceuticals, Inc., priority 2017, published 2020).
“And” between values parts separate entries of the source, which are not always exact repeats. Identical values can stand only once.

Assays:
[1] = Matrix effects on quantification (untreated human saliva); conditions: for % Bias QC-Mid / Concentration QC-Mid / Mean concentration QC-Mid / % Bias QC-High / Concentration QC-High / Mean concentration QC-High / Concentration, Control Blank (endogenous level) / Mean concentration Control Blank (endogenous level) / Mean concentration Control Blank / Concentration Control Blank: run 34; for Concentration, Control Blank (endogenous level) / Mean concentration Control Blank (endogenous level): unspiked; for Mean concentration Control Blank / Concentration Control Blank: not spiked (endogenous level); for Concentration: individual values
[2] = Quality controls: accuracy and precision, batch acceptance (cholestyramine-treated human saliva); conditions: for % Bias QC-Mid, batch acceptance / Mean concentration QC-Mid, batch acceptance / % Bias QC-High, batch acceptance / Mean concentration QC-High, batch acceptance: run 35; for Mean quality control concentration: Table 30, n 9
[3] = cholestyramine-treated human saliva, nominal 8.00 ng/mL
[4] = cholestyramine-treated human saliva, nominal 80.0 ng/mL
[5] = untreated human saliva, nominal 80.0 ng/mL
[6] = nominal 8.00 ng/mL, one value per run 31, 32, 33
[7] = nominal 8.00 ng/mL, cholestyramine-treated human saliva
[8] = nominal 80.0 ng/mL, cholestyramine-treated human saliva
[9] = nominal 80.0 ng/mL, cholestyramine-treated human saliva, single determinations
[10] = nominal 80.0 ng/mL, untreated human saliva
[11] = untreated human saliva, single determinations
[12] = nominal 8.00 ng/mL, cholestyramine-treated human saliva, runs 31, 32, 33
[13] = nominal 80.0 ng/mL, cholestyramine-treated human saliva, runs 31, 32, 33
[14] = Cholestyramine-Treated Human Saliva, QC-High, nominal 80.0 ng/mL
[15] = Cholestyramine-Treated Human Saliva, QC-Mid, nominal 8.00 ng/mL
[16] = Untreated Human Saliva, Control Blank (endogenous level)
[17] = Untreated Human Saliva, QC-High, spiked 80.0 ng/mL
[18] = nominal 800 ng/mL, cholestyramine-treated human saliva
[19] = nominal 800 ng/mL, untreated human saliva

## C[C@H](CCC(=O)NCCS(=O)(=O)O)[C@H]1CC[C@H]2[C@@H]3[C@H](O)C[C@@H]4C[C@H](O)CC[C@]4(C)[C@H]3C[C@H](O)[C@]12C [Taurocholic Acid, Taurocholic acid]
[1]; [3]
  % Bias QC-Mid: 3.3%
  Concentration QC-Mid: 8.81 ng/mL and 7.99 ng/mL and 7.98 ng/mL
  Mean concentration QC-Mid: 8.26 ng/mL
[1]; [4]
  % Bias QC-High: 1.0%
  Concentration QC-High: 81.7 ng/mL and 80.3 ng/mL
  Mean concentration QC-High: 80.8 ng/mL
[1]; [5]
  % Bias QC-High: 1.7%
  Concentration QC-High: 81.2 ng/mL and 80.2 ng/mL and 82.8 ng/mL and 81.6 ng/mL and 82.2 ng/mL
  Mean concentration QC-High: 81.4 ng/mL
[1]; untreated human saliva
  Concentration, Control Blank (endogenous level): BQL (Below quantitation limit (<0.500 ng/mL))
  Mean concentration Control Blank (endogenous level): BQL (Below quantitation limit (<0.500 ng/mL))
[2]; Table 27, QC-High 80.0 ng/mL
  Batch Acceptance Quality Controls Concentration, Mean: 85.9 ng/mL
[2]; Table 27, QC-Mid 8.00 ng/mL
  Batch Acceptance Quality Controls Concentration, Mean: 8.18 ng/mL
[2]; [3]
  % Bias QC-Mid, batch acceptance: −0.4%
  Mean concentration QC-Mid, batch acceptance: 7.97 ng/mL
[2]; [4]
  % Bias QC-High, batch acceptance: −3.0%
  Mean concentration QC-High, batch acceptance: 77.6 ng/mL
[2]; nominal 8.00 ng/mL
  Inter-Run % Bias QC-Mid: −1.9%
[2]; [6]
  Intra-Run % Bias QC-Mid: 2.7% and −1.8% and −6.6%
  Intra-Run Mean QC-Mid: 8.21 ng/mL and 7.86 ng/mL and 7.48 ng/mL
[2]; nominal 80.0 ng/mL
  Inter-Run % Bias QC-High: 2.5%

## C[C@H](CCC(=O)NCC(=O)O)[C@H]1CC[C@H]2[C@@H]3[C@H](O)C[C@@H]4C[C@H](O)CC[C@]4(C)[C@H]3C[C@H](O)[C@]12C [Glycocholic Acid, Glycocholic acid]
[1]; [7]
  % Bias QC-Mid: 3.7%
  Mean concentration QC-Mid: 8.30 ng/mL
[1]; nominal 8.00 ng/mL, cholestyramine-treated human saliva, single determinations
  Concentration QC-Mid: 8.56 ng/mL and 8.30 ng/mL and 8.04 ng/mL
[1]; [8]
  % Bias QC-High: 1.4%
  Mean concentration QC-High: 81.1 ng/mL
[1]; [9]
  Concentration QC-High: 81.1 ng/mL and 81.4 ng/mL and 80.8 ng/mL
[1]; [10]
  % Bias QC-High: 0.4%
  Mean concentration QC-High: 80.4 ng/mL
[1]; nominal 80.0 ng/mL, untreated human saliva, single determinations
  Concentration QC-High: 80.6 ng/mL and 77.6 ng/mL and 79.9 ng/mL and 82.1 ng/mL and 80.5 ng/mL and 81.4 ng/mL
[1]; untreated human saliva
  Mean concentration Control Blank: BQL (BQL: Below quantitation limit (0.500 ng/mL))
[1]; [11]
  Concentration Control Blank: BQL (BQL: Below quantitation limit (0.500 ng/mL))
[2]; nominal 0.500 ng/mL, cholestyramine-treated human saliva, runs 31, 32, 33
  Intra-Run Mean concentration QC-LLOQ: 0.574 ng/mL and 0.485 ng/mL and 0.497 ng/mL
[2]; [7]
  Inter-Run % Bias QC-Mid: −2.4%
  % Bias QC-Mid, batch acceptance: 2.3%
  Mean concentration QC-Mid, batch acceptance: 8.18 ng/mL
[2]; [12]
  Intra-Run % Bias QC-Mid: 1.0% and −2.2% and −5.9%
  Intra-Run Mean concentration QC-Mid: 8.08 ng/mL and 7.82 ng/mL and 7.53 ng/mL
[2]; [8]
  Inter-Run % Bias QC-High: 0.1%
  % Bias QC-High, batch acceptance: −1.0%
  Mean concentration QC-High, batch acceptance: 79.2 ng/mL
[2]; [13]
  Intra-Run Mean concentration QC-High: 80.5 ng/mL and 80.3 ng/mL and 79.4 ng/mL

## CC(CCC(=O)NCC(=O)O)C1CCC2C3CCC4CC(O)CCC4(C)C3CC(O)C12C (stereo not drawn) [Glycodeoxycholic Acid, Glycodeoxycholic acid]
[1]; [14]
  % Bias: −3.1%
  Concentration, Mean: 77.5 ng/mL
  Concentration: 75.7 ng/mL and 77.8 ng/mL and 79.1 ng/mL
[1]; [15]
  % Bias: 9.5%
  Concentration, Mean: 8.76 ng/mL
  Concentration: 8.93 ng/mL and 8.91 ng/mL and 8.45 ng/mL
[1]; [16]
  Concentration, Mean: BQL (Below quantitation limit (<0.500 ng/mL))
  Concentration: BQL (Below quantitation limit (<0.500 ng/mL))
[1]; [17]
  % Bias: −4.6%
  Concentration, Mean: 76.3 ng/mL
  Concentration: 77.2 ng/mL and 73.8 ng/mL and 76.5 ng/mL and 77.3 ng/mL (2×) and 75.7 ng/mL
[2]; QC-High, nominal 80.0 ng/mL
  Inter-Run % CV: 6.9%
  Inter-Run Mean: 82.9 ng/mL
[2]; QC-LLOQ, nominal 0.500 ng/mL
  Inter-Run % CV: 8.6%
  Inter-Run Mean: 0.538 ng/mL
[2]; QC-Mid, nominal 8.00 ng/mL
  Inter-Run % CV: 6.2%
  Inter-Run Mean: 8.47 ng/mL

## C[C@H](CCC(=O)NCCS(=O)(=O)O)[C@H]1CC[C@H]2[C@@H]3CC[C@@H]4C[C@H](O)CC[C@]4(C)[C@H]3C[C@H](O)[C@]12C [Taurodeoxycholic Acid, Taurodeoxycholic acid]
[1]; [3]
  % Bias QC-Mid: 0.1%
  Concentration QC-Mid: 8.14 ng/mL and 7.94 ng/mL and 7.95 ng/mL
  Mean concentration QC-Mid: 8.01 ng/mL
[1]; [4]
  % Bias QC-High: −1.0%
  Concentration QC-High: 78.8 ng/mL and 78.2 ng/mL and 80.5 ng/mL
  Mean concentration QC-High: 79.2 ng/mL
[1]; [5]
  % Bias QC-High: 0.9%
  Concentration QC-High: 82.4 ng/mL and 77.7 ng/mL and 79.8 ng/mL and 80.1 ng/mL and 81.8 ng/mL and 82.3 ng/mL
  Mean concentration QC-High: 80.7 ng/mL
[1]; untreated human saliva
  Concentration, Control Blank (endogenous level): BQL (Below quantitation limit (<0.500 ng/mL))
  Mean concentration Control Blank (endogenous level): BQL (Below quantitation limit (<0.500 ng/mL))
[2]; QC-High, nominal 80.0 ng/mL
  Inter-Run % CV: 7.2%
  Inter-Run Mean: 85.0 ng/mL
[2]; QC-LLOQ, nominal 0.500 ng/mL
  Inter-Run % CV: 8.3%
  Inter-Run Mean: 0.553 ng/mL
[2]; QC-Mid, nominal 8.00 ng/mL
  Inter-Run % CV: 6.6%
  Inter-Run Mean: 8.33 ng/mL
[2]; Table 24, QC-High 80.0 ng/mL
  Batch Acceptance Quality Controls Concentration, Mean: 85.5 ng/mL
[2]; Table 24, QC-Mid 8.00 ng/mL
  Batch Acceptance Quality Controls Concentration, Mean: 8.12 ng/mL
[2]; [3]
  % Bias QC-Mid, batch acceptance: 6.6%
  Mean concentration QC-Mid, batch acceptance: 8.53 ng/mL
[2]; [4]
  % Bias QC-High, batch acceptance: 5.3%
  Mean concentration QC-High, batch acceptance: 84.2 ng/mL

## CC(CCC(=O)NCC(=O)O)C1CCC2C3C(O)CC4CC(O)CCC4(C)C3CCC12C (stereo not drawn) [Glycochenodeoxycholic Acid, Glycochenodeoxycholic acid]
[1]; [3]
  % Bias QC-Mid: 3.7%
  Concentration QC-Mid: 8.61 ng/mL and 8.30 ng/mL and 7.99 ng/mL
  Mean concentration QC-Mid: 8.30 ng/mL
[1]; [4]
  % Bias QC-High: 1.5%
  Concentration QC-High: 79.5 ng/mL and 81.0 ng/mL and 83.1 ng/mL
  Mean concentration QC-High: 81.2 ng/mL
[1]; [5]
  % Bias QC-High: −0.5%
  Concentration QC-High: 81.3 ng/mL and 78.9 ng/mL and 79.5 ng/mL and 79.8 ng/mL and 78.5 ng/mL
  Mean concentration QC-High: 79.6 ng/mL
[1]; untreated human saliva
  Concentration, Control Blank (endogenous level): BQL (Below quantitation limit (<0.500 ng/mL))
  Mean concentration Control Blank (endogenous level): BQL (Below quantitation limit (<0.500 ng/mL))
[2]; QC-High, nominal 80.0 ng/mL
  Mean quality control concentration: 87.6 ng/mL
[2]; QC-Mid, nominal 8.00 ng/mL
  Mean quality control concentration: 8.47 ng/mL
[2]; [3]
  % Bias QC-Mid, batch acceptance: 7.5%
  Mean concentration QC-Mid, batch acceptance: 8.60 ng/mL
[2]; [4]
  % Bias QC-High, batch acceptance: 3.6%
  Mean concentration QC-High, batch acceptance: 82.9 ng/mL
[2]; nominal 8.00 ng/mL
  Inter-Run % Bias QC-Mid: 2.3%
[2]; [6]
  Intra-Run % Bias QC-Mid: 7.1% and −2.1% and 2.0%
  Intra-Run Mean QC-Mid: 8.57 ng/mL and 7.83 ng/mL and 8.16 ng/mL
[2]; nominal 80.0 ng/mL
  Inter-Run % Bias QC-High: 5.9%

## C[C@H](CCC(=O)O)[C@H]1CC[C@H]2[C@@H]3[C@H](O)C[C@@H]4C[C@H](O)CC[C@]4(C)[C@H]3CC[C@]12C [Chenodeoxycholic Acid, Chenodeoxycholic acid]
[1]; [8]
  % Bias QC-Mid: 14.5%
  Mean concentration QC-Mid: 91.6 ng/mL
[1]; [9]
  Concentration QC-Mid: 91.6 ng/mL and 88.9 ng/mL and 94.2 ng/mL
[1]; [18]
  % Bias QC-High: −10.3%
  Mean concentration QC-High: 718 ng/mL
[1]; nominal 800 ng/mL, cholestyramine-treated human saliva, single determinations
  Concentration QC-High: 717 ng/mL and 719 ng/mL
[1]; [19]
  % Bias QC-High: −1.9%
  Mean concentration QC-High: 785 ng/mL
[1]; nominal 800 ng/mL, untreated human saliva, single determinations
  Concentration QC-High: 708 ng/mL and 826 ng/mL and 703 ng/mL and 877 ng/mL and 870 ng/mL and 724 ng/mL
[1]; untreated human saliva
  Mean concentration Control Blank: BQL (BQL: Below quantitation limit (5.00 ng/mL))
[1]; [11]
  Concentration Control Blank: BQL (BQL: Below quantitation limit (5.00 ng/mL))
[2]; nominal 5.00 ng/mL, cholestyramine-treated human saliva, runs 31, 32, 33
  Intra-Run Mean concentration QC-LLOQ: 6.18 ng/mL and 4.68 ng/mL and 4.63 ng/mL
[2]; [8]
  Inter-Run % Bias QC-Mid: 9.3%
  % Bias QC-Mid, batch acceptance: 23.6%
  Mean concentration QC-Mid, batch acceptance: 98.9 ng/mL
[2]; [13]
  Intra-Run Mean concentration QC-Mid: 92.1 ng/mL and 91.5 ng/mL and 78.8 ng/mL
[2]; [18]
  Inter-Run % Bias QC-High: −6.0%
  % Bias QC-High, batch acceptance: −11.7%
  Mean concentration QC-High, batch acceptance: 707 ng/mL
[2]; nominal 800 ng/mL, cholestyramine-treated human saliva, runs 31, 32, 33
  Intra-Run Mean concentration QC-High: 771 ng/mL and 768 ng/mL and 718 ng/mL

## C[C@H](CCC(=O)O)[C@H]1CC[C@H]2[C@@H]3[C@H](O)C[C@@H]4C[C@H](O)CC[C@]4(C)[C@H]3C[C@H](O)[C@]12C [Cholic Acid, Cholic acid]
[1]; [14]
  % Bias: −0.7%
[1]; [15]
  % Bias: 2.1%
[1]; [17]
  % Bias: −0.1%
